The list shows a part of the results. Further columns of the screen follow, without active or inactive calls. Compounds called inactive in the main read-out are mostly missing here. The note in brackets gives the kind of curve behind each potency; many fits are weak.
Test: qHTS Assay to Find Inhibitors of Chronic Active B-Cell Receptor Signaling
Conditions: ABC-DLBCL IkBa-CBG/CBR reporter, luminescence ratio (green luciferase fused to IkBa over red control in TMD8 lymphoma cells), 4 h
How it was run: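 Cell line TMD8 (human ABC DLBCL), stably expressing tet-inducible CBG68-IkBa fusion and CBR; IMDM/0.5% FBS; cpd up to 46 uM; dox induction, 4 h, 37C/5% CO2; dual luminescence; green/red ratio; MG132 control.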

[1] = measured here: CBR red luminescence, cell number

Row | Compound | AC50 [1] | AC50 (measured here: IkBa-CBG green luminescence)
1 | S=C(NCCC(c1ccccc1)c1ccccc1)Nc1ccccc1Cl | 8.91 µM [falling, partial curve, poor fit] | 
2 | Cc1ccccc1C(=O)Nc1nnc(-c2cccnc2)o1 | 8.91 µM [falling, partial curve, poor fit] | 
3 | COc1ccccc1/C=C/C(=O)Nc1cccc(S(=O)(=O)NC2=NCCCCC2)c1 | 2 µM [falling, full curve] | 
4 | COc1ccc(C(=O)NNC(=O)C2CC=CCC2)cc1 (stereo not given) | 11.2 µM [falling, partial curve, poor fit] | 
5 | Cc1ccc(C)c(NC(=O)COC(=O)c2ccc3ccccc3n2)c1 | 2.59 µM [falling, partial curve, poor fit] | 
6 | CC(=O)Nc1cccc(C(=O)OC(C)C(=O)NCc2ccc3c(c2)OCO3)c1 (stereo not given) | 16.4 µM [rising, partial curve, poor fit] | 
7 | Cn1nc(-c2ccccc2)c2cc(C(=O)O)sc21 | 20 µM [falling, single point] | 
8 | O=C(CCCOc1ccc(Cl)cc1Cl)Nc1ccncc1 | 2.31 µM [rising, partial curve, poor fit] | 
9 | Cc1occc1C(=O)NNC(=O)NC12CC3CC(CC(C3)C1)C2 | 2.06 µM [falling, partial curve, poor fit] | 
10 | NC(=S)N/N=C/c1coc2ccc(F)cc2c1=O | 35.5 µM [rising, partial curve, poor fit] | 
11 | O=C1SC(Cc2ccccc2)C(=O)N1c1ccccc1 (stereo not given) | 15.8 µM [rising, single point] | 
12 | O=C(O)c1ccc(OS(=O)(=O)c2ccc(Cl)s2)cc1 | 6.51 µM [rising, single point] | 
13 | COc1cc(Nc2nc3ccccc3n3nnnc23)cc(OC)c1OC | 11.2 µM [falling, partial curve] | 
14 | CN(C)/C=C1\C=C2C(=O)c3ccccc3N2C1=O | 12.6 µM [falling, partial curve] | 
15 | N#CC1=C(SCC(=O)c2cc3ccccc3oc2=O)NC(=O)C(C#N)C12CCCC2 (stereo not given) | 0.651 µM [falling, full curve, poor fit] | 
16 | COc1ccc(N2CCN(c3cnc4ccccc4n3)CC2)cc1 | 0.316 µM [rising, full curve, poor fit] | 
17 | CCN(CC)CC(=O)c1ccc(-c2ccccc2)cc1 | 18.4 µM [falling, single point] | 
18 | CS(=O)(=O)c1ccc(C(=O)OCC(=O)NC(=O)C2CCCCC2)cc1[N+](=O)[O-] | 10 µM [falling, partial curve, poor fit] | 
19 | CCOC(=O)Cc1csc(NC(=O)c2ccc3c(c2)OCO3)n1 | 10.3 µM [falling, partial curve] | 
20 | O=C1CN(C(=O)COC(=O)C23CC4CC(CC(O)(C4)C2)C3)c2ccccc2N1 | 4.11 µM [rising, single point] | 
21 | CC(C)Cn1nc(NC(=O)C2CCCO2)c2cc3ccccc3nc21 (stereo not given) | 12.6 µM [falling, partial curve] | 
22 | CCOC(=O)C1CCN(C(=O)CSc2nc3ncccc3[nH]2)CC1 | 35.5 µM [falling, single point] | 

Row | Compound | AC50 [1] | AC50 (measured here: IkBa-CBG green luminescence)
23 | COC(=O)CSc1nc(COc2ccccc2)nc2ccccc12 | 11.2 µM [falling, partial curve, poor fit] | 
24 | O=C(O)C1CC=CCC1C(=O)Nc1ccc(F)c(F)c1 (stereo not given) | 23.1 µM [rising, partial curve, poor fit] | 
25 | CC(=O)c1c(C)[nH]c(C(=O)OCc2ccccc2F)c1C | 1.58 µM [rising, partial curve, poor fit] | 
26 | O=C(N/N=C/c1ccc([N+](=O)[O-])s1)C(O)c1ccccc1 (stereo not given) | 29.1 µM [falling, single point] | 
27 | O=[N+]([O-])c1ccc2c(c1)nnn2-c1ccccc1 | 35.5 µM [rising, single point] | 
28 | O=S(=O)(c1ccc(N2CCOCC2)c(Cl)c1)N1CCOCC1 | 11.2 µM [falling, single point] | 
29 | O=C(NCCCn1ccnc1)c1cc2nc(-c3ccc(Br)cc3)cc(C(F)(F)F)n2n1 | 16.4 µM [rising, single point] | 
30 | CC(NC(=O)COC(=O)CCC(=O)c1ccc(Cl)cc1)c1ccccc1 (stereo not given) | 29.1 µM [rising, single point] | 
31 | COc1ccc(C(=O)Nc2cc(Cl)ccc2Cl)c(OC)n1 | 29.1 µM [rising, single point] | 
32 | COc1ccc(NS(=O)(=O)c2cc(NC(=O)[C@@H](NC(N)=O)C(C)C)ccc2C)cc1 | 0.1 µM [rising, full curve, poor fit] | 
33 | COc1cccc(C2c3[nH]c4ccccc4c3C[C@H]3C(=O)N(c4ccccc4C(=O)N4CCC(C(=O)O)CC4)C(=O)N23)c1 (stereo not given in full) | 8.91 µM [falling, partial curve, poor fit] | 
34 | C=C(C(=O)c1ccccc1)C(C)C(=C)C(=O)c1ccccc1 | 7.31 µM [falling, partial curve] | 
35 | COc1cccc(NC(=O)[C@@H](NC(=O)N2CCn3c2nc2ccccc23)C(C)C)c1 | 10 µM [falling, partial curve] | 
36 | O=C1c2ccccc2C(=O)N1CN(C(=O)COc1ccccc1)c1ccc(F)cc1 | 13 µM [falling, partial curve, poor fit] | 
37 | O=S(=O)(NCC(c1cccnc1)N1CCN(c2ccc(F)cc2)CC1)c1ccc(F)cc1 (stereo not given) | 25.9 µM [falling, single point] | 
38 | CCN1C(=NCCN2CCOCC2)N[C@@H](c2ccccc2)C(C(=O)OC)=C1C | 0.447 µM [rising, partial curve, poor fit] | 
39 | CCc1cc2c(=O)c(-c3cnn(-c4ccccc4)c3)c(C)oc2cc1OCC(=O)Nc1cccc(C)c1 | 18.4 µM [rising, partial curve, poor fit] | 
40 | O=C(CNC(=O)OCc1ccccc1)Nc1ccc(F)cc1 | 18.4 µM [rising, single point] | 
41 | NC1=NC(=O)S/C1=C\c1ccc(F)cc1 | 10 µM [falling, partial curve] | 
42 | CC1=C(C(=O)OCc2ccccc2)C(c2ccc([N+](=O)[O-])cc2)NC(=O)N1 (stereo not given) | 14.1 µM [falling, single point] | 
43 | S=C(N/N=C/c1ccc(Br)cc1)N1CCCCC1 | 35.5 µM [falling, single point] | 
44 | COc1ccc(-c2n[nH]c(C)c2-c2cnn(-c3ccccc3)c2)c(O)c1 | 0.259 µM [rising, full curve, poor fit] | 

Row | Compound | AC50 [1] | AC50 (measured here: IkBa-CBG green luminescence)
45 | CCC(=O)N1CCc2cc(-c3csc(NC(=O)c4ccco4)n3)ccc21 | 0.708 µM [rising, partial curve, poor fit] | 
46 | Oc1[nH]c2c(Cl)cc(Cl)cc2c1N=NC(=S)NCC1CCCO1 (stereo not given) | 6.51 µM [rising, single point] | 3.26 µM [falling, full curve]
47 | Cc1ccc(C)c(NC(=S)NC(NC(=O)Cc2cccc3ccccc23)C(Cl)(Cl)Cl)c1 (stereo not given) | 32.6 µM [rising, partial curve, poor fit] | 
48 | NC(=O)c1ccc(-c2noc(-c3ccccc3F)n2)cc1 | 8.2 µM [falling, partial curve, poor fit] | 
49 | O=C(Nc1ccc(O)c(-c2nc3ccccc3s2)c1)c1cccs1 | 1.03 µM [falling, full curve, poor fit] | 
50 | Cc1cnc(NC(=O)CSc2nc3ccccc3c(=O)[nH]2)s1 | 8.2 µM [falling, partial curve, poor fit] | 
51 | O=C(NNC(=O)c1cccs1)c1ccc2ccccc2c1 | 4.47 µM [falling, partial curve] | 
52 | Cc1nn(-c2ccccc2)c(C)c1/C=N/N1CCN(c2ccccc2)CC1 | 5.8 µM [rising, single point] | 
53 | O=C1CN(C(=O)/C=C/c2cccc(Cl)c2)c2ccccc2N1 | 1.41 µM [rising, full curve] | 
54 | CCOc1ccc(S(=O)(=O)NCCOC)cc1C | 0.00517 µM [rising, full curve, poor fit] | 
55 | CCN(CC(=O)N1CCOCC1)S(=O)(=O)c1cc(Cl)ccc1Cl | 12.6 µM [rising, partial curve, poor fit] | 
56 | Cc1c(C(=O)NCc2ccccn2)oc2ccc(S(=O)(=O)N3CCC4(CC3)OCCO4)cc12 | 5.01 µM [rising, full curve, poor fit] | 
57 | CCCC(=O)Nc1sc(C(=O)Nc2cccc(N)c2)c(C)c1C(=O)OC | 2.82 µM [falling, partial curve, poor fit] | 
58 | CCOC(=O)C1CCN(C(=O)CSc2cc(=O)n(C)c3ccccc23)CC1 | 14.1 µM [rising, single point] | 
59 | NS(=O)(=O)c1ccc(N=Nc2c(O)ccc3ccccc23)cc1 | 5.62 µM [falling, full curve, poor fit] | 
60 | C/C(=C\C(=O)c1ccc(Br)cc1)Nc1ccc(Cl)cc1 | 20.6 µM [rising, partial curve] | 
61 | Cn1cc(C(=O)N/N=C/C(Br)=C/c2ccccc2)ccc1=O | 4.61 µM [rising, single point] | 
62 | Cc1cc(C(=O)Nc2ccccc2C(=O)O)ccc1NC(=O)COc1cccc(C)c1C | 1 µM [rising, full curve, poor fit] | 
63 | CCOCCCN(C(=O)CNC(=O)c1ccco1)C(C(=O)NC1CCCC1)c1ccccc1C (stereo not given) | 11.2 µM [rising, partial curve] | 
64 | CN1CCN(c2ncnc3c2c(-c2ccccc2)cn3-c2ccc(F)cc2)CC1 | 17.8 µM [falling, single point] | 

Looked up one by one from above, 2 records:
Row | Compound | AC50 [1] | AC50 (measured here: IkBa-CBG green luminescence)
57 | CCCC(=O)Nc1sc(C(=O)Nc2cccc(N)c2)c(C)c1C(=O)OC | 2.82 µM [falling, partial curve, poor fit] | 
63 | CCOCCCN(C(=O)CNC(=O)c1ccco1)C(C(=O)NC1CCCC1)c1ccccc1C (stereo not given) | 11.2 µM [rising, partial curve] | 
